From paper PMC5431813 come the findings set out here.

Chains of the proteins cited; added tags and fusions are not shown. Lines headed by an entry give the natural chain unless they say otherwise; changes in a name come on top.
UniProt Q8CGX0: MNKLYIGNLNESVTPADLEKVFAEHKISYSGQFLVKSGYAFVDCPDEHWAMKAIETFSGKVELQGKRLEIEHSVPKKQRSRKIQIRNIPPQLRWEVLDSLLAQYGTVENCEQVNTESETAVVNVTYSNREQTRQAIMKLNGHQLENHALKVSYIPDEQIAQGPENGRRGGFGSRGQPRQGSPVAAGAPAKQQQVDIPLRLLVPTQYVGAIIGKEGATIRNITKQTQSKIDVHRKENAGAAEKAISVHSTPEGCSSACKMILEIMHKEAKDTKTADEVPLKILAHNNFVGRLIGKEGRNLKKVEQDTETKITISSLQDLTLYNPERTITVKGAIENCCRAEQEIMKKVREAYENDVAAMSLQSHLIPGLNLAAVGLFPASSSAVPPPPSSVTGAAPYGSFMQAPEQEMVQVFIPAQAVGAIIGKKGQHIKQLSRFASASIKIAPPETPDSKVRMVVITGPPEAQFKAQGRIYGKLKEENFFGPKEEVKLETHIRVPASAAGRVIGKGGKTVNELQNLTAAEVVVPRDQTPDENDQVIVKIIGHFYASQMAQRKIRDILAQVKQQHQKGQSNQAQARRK
UniProt Q12840: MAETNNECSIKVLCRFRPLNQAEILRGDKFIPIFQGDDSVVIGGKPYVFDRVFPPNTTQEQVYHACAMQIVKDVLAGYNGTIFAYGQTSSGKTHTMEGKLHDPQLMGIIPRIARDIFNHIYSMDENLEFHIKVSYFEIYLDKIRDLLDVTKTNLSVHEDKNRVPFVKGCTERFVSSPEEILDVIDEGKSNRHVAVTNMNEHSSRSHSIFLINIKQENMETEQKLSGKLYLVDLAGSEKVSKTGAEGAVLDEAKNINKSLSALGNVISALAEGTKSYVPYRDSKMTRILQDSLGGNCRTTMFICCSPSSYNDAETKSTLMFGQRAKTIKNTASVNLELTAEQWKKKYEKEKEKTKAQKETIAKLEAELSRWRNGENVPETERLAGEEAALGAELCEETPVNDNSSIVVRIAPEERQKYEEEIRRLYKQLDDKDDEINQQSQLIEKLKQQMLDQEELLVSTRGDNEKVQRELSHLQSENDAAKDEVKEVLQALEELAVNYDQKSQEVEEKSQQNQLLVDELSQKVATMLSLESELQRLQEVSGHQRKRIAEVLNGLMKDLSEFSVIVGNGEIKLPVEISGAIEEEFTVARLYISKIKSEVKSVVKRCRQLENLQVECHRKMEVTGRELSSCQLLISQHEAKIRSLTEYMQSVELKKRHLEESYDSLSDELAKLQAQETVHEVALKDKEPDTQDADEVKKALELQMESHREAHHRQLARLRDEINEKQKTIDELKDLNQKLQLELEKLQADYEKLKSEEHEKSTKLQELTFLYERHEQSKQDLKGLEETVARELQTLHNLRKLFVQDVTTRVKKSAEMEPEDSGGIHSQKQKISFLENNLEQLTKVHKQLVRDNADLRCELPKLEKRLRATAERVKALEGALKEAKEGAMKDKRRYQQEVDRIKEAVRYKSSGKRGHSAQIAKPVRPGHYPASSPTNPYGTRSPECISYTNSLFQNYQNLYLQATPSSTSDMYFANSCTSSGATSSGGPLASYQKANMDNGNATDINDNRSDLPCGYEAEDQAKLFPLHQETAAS

No constants are given. Whether binding was seen depends on the method and setting. In cells and extracts the contact can be indirect. Some results given as binding are weak or reduced against the parent protein; the word gives no strength.

The target in assay [1] is HA-BIO-ZBP1 (Bio-Thrombin-HA-ZBP1, wildtype) (rat) (UniProt Q8CGX0). The assay can be described thus: co-IP; Neuro2a cells co-transfected with Kif5a-GFP and HA/Bio-tagged ZBP1 or its S181A mutant, 48 h; lysis in 50 mM Tris pH 7.5, 150 mM NaCl, 0.1% Triton X-100, 2 mM EDTA, 2 mM MgCl2, 2 mM ATP; overnight with anti-HA magnetic beads; four washes in lysis buffer without ATP; Western blot.

In assay [2] the target is HA-BIO-ZBP1_(S181A) (Bio-Thrombin-HA-ZBP1 S181A) (rat) (UniProt Q8CGX0). Described as above.

Turning to KIF5A-GFP (from UniProt Q12840 1-1032), the binding entry in assay [1] and in assay [2] was “binds” each time.
